Measured values as given in patent publication US20230227567A1.
These are yes or no findings as the source states them, for the method shown. Binding can be weak; no strength is given.

Columns and labels:
[1] = target: recombinant human CD40 extracellular domain with C-terminal 6His tag (Novoprotein) (human); assay: ELISA, plate coated with CD40 extracellular domain-6His
[2] = target: recombinant human CD40 extracellular domain with C-terminal 6His tag (Novoprotein) (human); assay: ELISA
[3] = target: recombinant human CD40 extracellular domain with C-terminal 6His tag (Novoprotein) (human); assay: ELISA, plate coated with CD40 extracellular domain-6His at 1 ug/ml; SVX-3001 supernatant estimated at 27.3 ng/ml

binding [1]: binds | binding [2]: binds | binding [3]: binds
B1: Humanized anti-human CD-40 antibody SVX-3001 (antibody, human IgG1, kappa, V domains shown)
VH: QVQLQQSGPGLVKPSQSLSLTCAVSGYSITTNYYWNWIRQAPGKGLEWVGYIRYDGTTYYAPSLKGRFSITRDTSKNQFFLQLTSVTPEDTATYYCARLDYWGQGTLVTVSS
VL: DIVMTQSPLSLSVSLGDRASISCRSSQSLENSNGNTFLNWFQQKPGQSPQLLIYRVSNRFSGVPDRFSGSGSGTDFTLKISRVEAEDEGVYFCLQVTHVPYTFGGGTKLEIKR
